# Measurements taken from patent US20250026850A1.
# Sequences of proteins named here, by UniProt entry; tags and fusion partners are left off. A change or cut given only in a name is not applied to a line headed by its entry.
# UniProt P49961: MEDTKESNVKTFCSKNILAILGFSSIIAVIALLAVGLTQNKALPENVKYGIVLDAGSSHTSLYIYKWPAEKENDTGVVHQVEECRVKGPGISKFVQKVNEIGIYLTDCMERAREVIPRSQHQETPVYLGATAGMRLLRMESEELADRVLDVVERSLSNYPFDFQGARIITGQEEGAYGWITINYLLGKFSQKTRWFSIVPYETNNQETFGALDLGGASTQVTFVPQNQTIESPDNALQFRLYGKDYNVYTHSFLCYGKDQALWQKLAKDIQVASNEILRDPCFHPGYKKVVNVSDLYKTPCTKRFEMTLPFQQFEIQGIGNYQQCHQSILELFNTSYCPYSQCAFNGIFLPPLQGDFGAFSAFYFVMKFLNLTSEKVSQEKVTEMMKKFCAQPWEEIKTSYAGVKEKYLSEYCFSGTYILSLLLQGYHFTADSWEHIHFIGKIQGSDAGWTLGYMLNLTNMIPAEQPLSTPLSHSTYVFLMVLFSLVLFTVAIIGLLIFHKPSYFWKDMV
# These are yes or no findings as the source states them, for the method shown. Some results given as binding are weak or reduced against the parent protein; the word gives no strength.
# Target: human CD39 on cells (human) (UniProt P49961)
# Experiment: FACS, 15 ug/ml mAb on CHO cells expressing WT human CD39 (row WT, M1-V510); scored yes/NO
binder,measurement,value
"31873 (antibody, V domains shown) VH: QVQLVQSGAEVKKPGSSVKVSCKASGGTFSKYGISWVRQAPGQGLEWMGSIIPEFGIANYAQKFQGRVTITADESTSTAYMELSSLRSEDTAVYYCARESGGYRDHRLGVWGQGTMVTVSS VL: EIVMTQSPATLSVSPGERATLSCRASQSVGSNLAWYQQKPGQAPRLLIYGASTRASGIPARFSGSGSGTEFTLTISSLQSEDFAVYYCQQYLLWPLTFGGGTKVEIKR",binding,binds
